# Laboratory results from PubChem BioAssay AID1851 (National Center for Advancing Translational Sciences (NCATS), 2009).
# Sequences of proteins named here, by UniProt entry; tags and fusion partners are left off.
# UniProt P05177, whole entry, looked up: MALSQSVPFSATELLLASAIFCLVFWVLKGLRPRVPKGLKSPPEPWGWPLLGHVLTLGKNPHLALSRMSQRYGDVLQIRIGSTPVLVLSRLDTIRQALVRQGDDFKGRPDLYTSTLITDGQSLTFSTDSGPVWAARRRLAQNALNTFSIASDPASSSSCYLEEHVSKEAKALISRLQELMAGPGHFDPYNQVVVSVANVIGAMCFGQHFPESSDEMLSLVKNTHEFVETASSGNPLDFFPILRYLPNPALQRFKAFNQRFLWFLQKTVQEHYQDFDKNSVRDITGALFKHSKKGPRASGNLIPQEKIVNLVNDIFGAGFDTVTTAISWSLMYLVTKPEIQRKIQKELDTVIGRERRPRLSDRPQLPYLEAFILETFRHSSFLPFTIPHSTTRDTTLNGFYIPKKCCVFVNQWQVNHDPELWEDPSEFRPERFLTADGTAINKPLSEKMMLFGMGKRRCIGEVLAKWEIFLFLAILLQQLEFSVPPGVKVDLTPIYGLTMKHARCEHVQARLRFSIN
# About 5,700 (36%) of roughly 16,000 compounds were called active. Inconclusive means that the source gave no clear call. Such entries were picked first, then a sample of the others. The call rests on the fitted dose curve; in most records, active means well fitted curve in the direction sought with a large enough effect; inconclusive means small, poorly fitted or top-dose-only effect, or effect the other way; inactive means no such curve, though single readings can be large or run the other way. Where the call is inconclusive, the potency comes from a doubtful curve fit.
# Biological target: Cytochrome P450 1A2 (Homo sapiens) (UniProt P05177)
# Test: Cytochrome panel assay with activity outcomes
# Conditions: recombinant CYP, pro-luciferin dealkylation, luminescence, p450-cyp1a2; activity, negative = inhibition: at 57.1 µM (top of the series)
# On the % scale 0 is the no-effect control and ±100 the full control effect.
Compound,AC50,"activity, negative = inhibition"
C=CC1=C(C)C2=Cc3c(C=C)c(C)c4[n]3[Sn+2][n]3c(c(C)c(CCC(=O)O)c3=CC3=NC(=C4)C(C)=C3CCC(=O)O)=CC1=N2,"inconclusive: 39.8 µM [falling, partial curve]",
CCOC(=O)N1CCC(NC(=O)c2cc(S(=O)(=O)N3CCCC3)cn2C)CC1,inactive,
N.N.O=C(O)C1(C(=O)O)CCC1.[Pt],"inconclusive: 25.1 µM [falling, partial curve, poor fit]",
COc1ccccc1N1CCN(CCCCNC(=O)c2ccc3ccccc3c2)CC1,inactive,
COc1cc2nc(N3CC=[N+](C(=O)c4ccco4)CC3)nc(N)c2cc1OC,"inconclusive: 12.6 µM [falling, partial curve]",
O=C(c1csnn1)N1CCC[C@@]2(CCN(c3ccccn3)C2)C1,inactive,
N.N.N.N.N.N.N.N.N.N.N.N.N.N.O.O.[Ru].[Ru].[Ru],,inconclusive: -22% [single point]
CN1CCN(c2nc(-c3cccnc3)nc3ccccc23)CC1,active: 3.16 µM,
